# In the supplement of paper PMC3334620:
# Over roughly 33,000 sequences, “E-score (-0.5 to 0.5)” has its median near -8e-05; the highest 2% begin near 0.23. The list shows a part of the results.
# Target: T1, Nrg2 (UniProt P38082)
# T1 sequence: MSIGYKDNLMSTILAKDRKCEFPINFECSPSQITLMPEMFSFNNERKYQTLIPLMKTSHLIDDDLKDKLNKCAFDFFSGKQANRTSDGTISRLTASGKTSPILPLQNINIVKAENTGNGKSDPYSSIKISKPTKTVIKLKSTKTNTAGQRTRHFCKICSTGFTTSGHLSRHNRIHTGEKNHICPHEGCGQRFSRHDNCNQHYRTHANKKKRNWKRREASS
# Test: PBM E-score (8-mer binding enrichment) (E-score (-0.5 to 0.5)); higher = stronger / more preferred TF binding
# Conditions: protein concentration: 100 nM; construct: GST-full length
# Summary of the method: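 Bound GST-tagged yeast transcription factors, applied at about 100-200 nM to double-stranded universal all-10-mer Agilent arrays, were detected with fluorescent anti-GST. Scans were normalised with masliner. A modified Wilcoxon-Mann-Whitney statistic, the E-score, was assigned to each ungapped eight-base word pooled with its reverse complement by the Universal PBM Analysis Suite.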
row,Sequence,PBM E-score
1,GAGACAAA,-0.091
2,CTTAATAA,0.194
3,AACAGTGC,0.0267
4,CACGAGTG,-0.114
5,GAAATAAC,0.126
6,ACAGAAAG,0.104
7,AGAGTGTC,0.211
8,CTCAAAGA,-0.102
9,GTATAGTA,0.0278
10,CAGGTCCC,0.135
11,AGCACATG,0.209
12,ATATGCAT,0.0295
13,AGTTCAGC,-0.107
14,ATGAAGTA,0.0961
15,TAAAAATA,0.0993
16,AATCTCGT,0.055
17,CCTCACAA,0.073
18,GAATATAC,0.0689
19,GTCGTCAA,0.00047
20,CGATTGGA,-0.0316
21,ATATCTTG,0.0388
22,ACTATAAA,0.118
23,GGGCACTA,0.00928
24,AATCGACG,0.0662
25,CAAGGACA,-0.147

row,Sequence,PBM E-score
1,AACAACAG,-0.0488
2,CTGGTAGC,-0.0378
3,CATAGTCG,-0.0054
4,ACCGGACG,-0.0766
5,ACCCTCCG,-0.0767
6,AAGAATGC,0.0568
7,CGTATTGA,0.0915
8,GTGGTAAC,-0.0324
9,AGCGCTTG,-0.00848
10,ATATGGAA,0.0638
11,CGTCAAAA,0.144
12,AAAATGGA,0.308
13,CTTCAAAA,0.0401
14,CAGTCAGC,-0.0385
15,CATGTACG,0.128
16,GAATCGAA,0.0974
17,ACTCAATA,0.119
18,GACCGACA,0.0416
19,GCAATAAC,0.0808
20,GCTTTATA,-0.102
21,AATCGTAC,0.0882
22,AATAGGAC,0.0448
23,ATAGTATA,0.107
24,CAGCGTTC,0.0488
25,GCATGGAA,0.12

# Random excerpt: six entries already listed, in no set order.
row,Sequence,PBM E-score
14,CAGTCAGC,-0.0385
19,GCAATAAC,0.0808
4,ACCGGACG,-0.0766
22,AATAGGAC,0.0448
13,CTTCAAAA,0.0401
11,CGTCAAAA,0.144

# Going on with the list.

row,Sequence,PBM E-score
1,AATGTATA,0.0937
2,GACCGAGC,-0.0794
3,ACTACTCT,0.0608
4,ACTGGACA,-0.0201
5,ACGTGACA,-0.0483
6,AGAAACCT,-0.00411
7,GTCCGTCA,0.00645
8,AGCGTCTA,-0.121
9,ACACCGAA,-0.0503
10,TACAACTA,0.171
11,AGCAGCAC,-0.131
12,ATGAAACA,-0.0699
13,CTGTCGTC,-0.0022
14,CTGCTGAA,-0.201
15,AGGGGTCG,0.0876
16,GACCAGCC,-0.0527
17,AACACTAT,0.252
18,AGTGTCAC,-0.0785
19,AGAGTAAG,0.132
20,CCGTGCAA,0.0358
21,GGATGACC,-0.0893
22,TGAGACAA,-0.00496
23,AAGGCACT,-0.111
24,CCTTGAAA,0.0296
25,GAACCATA,0.0868

row,Sequence,PBM E-score
1,ATGCGGTG,-0.162
2,ATAAGCAA,0.149
3,TGAGTACA,0.13
4,CCCTATGA,-0.028
5,CCATTGCG,-0.0449
6,TCATTGGA,0.0781
7,CTCATTAA,0.173
8,TGATGAAA,0.0875
9,GCAGGAAA,0.0944
10,AGTCTCTA,-0.115
11,AATTAGTA,0.23
12,CGAAGAAC,-0.0662
13,CTCAGTTA,0.0608
14,CCGGTAGC,-0.234
15,CTCTCTCC,-0.195
16,CGGTCGAG,-0.155
17,GTGCGAGA,0.106
18,CTCCCTGC,-0.0805
19,ATTGCACG,0.141
20,GAGGACGA,0.0657
21,ACACCTCG,0.014
22,GGTGCAAC,-0.13
23,GAGTCGGA,-0.0232
24,ACGCCGAG,0.0717
25,AGCTCGCG,0.156

row,Sequence,PBM E-score
1,CACGACCG,-0.195
2,AGGACGCG,-0.111
3,AAAAGACG,-0.0148
4,ACGTCTGC,-0.0969
5,ACAAGTTA,0.0352
6,AGCTTATG,0.0706
7,CTGGCAAG,-0.127
8,CAGTAGAG,-0.221
9,ATTATCTC,0.195
10,TAAGGAAA,-0.0344
11,AGAGCCGG,-0.209
12,CGGTTCGA,0.188
13,ATTGTTAC,0.165
14,GGCTGGTA,-0.0211
15,CCGATTCC,0.00489
16,AGTTGTGC,0.0129
17,AGGTGCAG,-0.0039
18,CCATCGGG,-0.0901
19,ATACTGGC,0.0697
20,AACGTGGT,-0.119
21,GATCCACC,-0.161
22,GAATTCTC,-0.00666
23,AGAGCCCA,-0.0955
24,ATGAAGAA,0.025
25,GCTCATAC,-0.00494

# Two entries from above, with tabs.
row	Sequence	PBM E-score
19	ATACTGGC	0.0697
23	AGAGCCCA	-0.0955

# The list goes on.

row,Sequence,PBM E-score
1,GAAAGCCC,0.0882
2,CTGCGGTC,0.0351
3,TATGACGA,-0.0603
4,ATCAAGCA,0.0485
5,AGTCTATG,-0.111
6,ATCCATAG,-0.12
7,CCTTAAAA,0.0445
8,CCAGTATA,-0.00867
9,ACCTGAAT,0.172
10,CCCAATGC,-0.161
11,CCCTGGTC,0.0217
12,GTAATTTA,0.089
13,GCGCGGAC,0.127
14,CGTTTTAA,0.0715
15,ACCAAAGG,-0.142
16,ATCGAACA,0.217
17,CTAACTCA,-0.011
18,CTAGATTC,-0.0731
19,GCGTTCGA,0.159
20,ACATTTTA,0.0835
21,CGGATGGC,0.0447
22,ACTCCACA,0.0471
23,CTACTCAC,0.0755
24,ATTCGGGC,-0.044
25,AACGGTTG,0.038

row,Sequence,PBM E-score
1,GAGTATAA,0.145
2,TCCCTAAA,0.0662
3,ACGAATTA,0.1
4,AGACGGAA,-0.0774
5,AAAGTGAA,0.157
6,AAGTGACT,-0.236
7,CCTGGTGA,-0.0401
8,CAATCTCC,0.0119
9,AACCCGAC,-0.00418
10,CCCGCCAA,-0.175
11,AGCCCAAA,0.0891
12,GGCGCAAA,0.14
13,GCCAGAGC,-0.162
14,CGGGCGGC,-0.0587
15,ACAGCAGT,-0.0888
16,AGAGGGAC,-0.0381
17,CGTGGGTC,0.0321
18,AAACTCAA,0.117
19,CGAAGCGA,-0.0324
20,ATGTTTCC,-0.0231
21,CCCTTTCG,0.0725
22,AACTTCAC,0.194
